Data from the supplement of paper PMC10849652.
Some of the results follow.

By UniProt entry, the sequences of proteins in these tests, tags left out. Where a name states a change or a piece, a line headed by the entry shows the natural chain unless it says otherwise.
UniProt Q9Y4W6: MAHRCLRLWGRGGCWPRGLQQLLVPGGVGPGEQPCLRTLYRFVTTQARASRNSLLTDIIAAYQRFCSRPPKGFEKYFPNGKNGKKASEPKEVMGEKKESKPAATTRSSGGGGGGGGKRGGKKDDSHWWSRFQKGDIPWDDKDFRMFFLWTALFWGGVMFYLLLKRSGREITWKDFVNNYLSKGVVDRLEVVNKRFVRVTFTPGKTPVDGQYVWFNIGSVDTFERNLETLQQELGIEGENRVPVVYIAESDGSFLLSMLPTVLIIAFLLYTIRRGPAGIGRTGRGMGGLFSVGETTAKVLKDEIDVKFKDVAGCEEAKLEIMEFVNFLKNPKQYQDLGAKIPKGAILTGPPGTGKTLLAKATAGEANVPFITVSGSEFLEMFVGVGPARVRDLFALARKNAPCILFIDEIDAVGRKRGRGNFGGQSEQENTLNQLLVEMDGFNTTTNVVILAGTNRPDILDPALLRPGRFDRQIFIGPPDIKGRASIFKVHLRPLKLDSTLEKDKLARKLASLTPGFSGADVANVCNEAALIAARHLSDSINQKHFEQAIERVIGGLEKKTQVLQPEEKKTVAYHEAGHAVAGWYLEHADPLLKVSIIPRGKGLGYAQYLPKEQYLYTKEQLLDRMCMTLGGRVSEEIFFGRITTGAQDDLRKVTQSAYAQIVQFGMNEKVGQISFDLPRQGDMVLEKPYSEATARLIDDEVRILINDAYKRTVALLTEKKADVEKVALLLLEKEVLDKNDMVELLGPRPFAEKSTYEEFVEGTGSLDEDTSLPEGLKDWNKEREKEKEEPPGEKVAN
UniProt P07311: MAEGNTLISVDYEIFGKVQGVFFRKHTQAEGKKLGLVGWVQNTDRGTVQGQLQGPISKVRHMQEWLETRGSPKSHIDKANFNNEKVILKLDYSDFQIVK
UniProt P35573: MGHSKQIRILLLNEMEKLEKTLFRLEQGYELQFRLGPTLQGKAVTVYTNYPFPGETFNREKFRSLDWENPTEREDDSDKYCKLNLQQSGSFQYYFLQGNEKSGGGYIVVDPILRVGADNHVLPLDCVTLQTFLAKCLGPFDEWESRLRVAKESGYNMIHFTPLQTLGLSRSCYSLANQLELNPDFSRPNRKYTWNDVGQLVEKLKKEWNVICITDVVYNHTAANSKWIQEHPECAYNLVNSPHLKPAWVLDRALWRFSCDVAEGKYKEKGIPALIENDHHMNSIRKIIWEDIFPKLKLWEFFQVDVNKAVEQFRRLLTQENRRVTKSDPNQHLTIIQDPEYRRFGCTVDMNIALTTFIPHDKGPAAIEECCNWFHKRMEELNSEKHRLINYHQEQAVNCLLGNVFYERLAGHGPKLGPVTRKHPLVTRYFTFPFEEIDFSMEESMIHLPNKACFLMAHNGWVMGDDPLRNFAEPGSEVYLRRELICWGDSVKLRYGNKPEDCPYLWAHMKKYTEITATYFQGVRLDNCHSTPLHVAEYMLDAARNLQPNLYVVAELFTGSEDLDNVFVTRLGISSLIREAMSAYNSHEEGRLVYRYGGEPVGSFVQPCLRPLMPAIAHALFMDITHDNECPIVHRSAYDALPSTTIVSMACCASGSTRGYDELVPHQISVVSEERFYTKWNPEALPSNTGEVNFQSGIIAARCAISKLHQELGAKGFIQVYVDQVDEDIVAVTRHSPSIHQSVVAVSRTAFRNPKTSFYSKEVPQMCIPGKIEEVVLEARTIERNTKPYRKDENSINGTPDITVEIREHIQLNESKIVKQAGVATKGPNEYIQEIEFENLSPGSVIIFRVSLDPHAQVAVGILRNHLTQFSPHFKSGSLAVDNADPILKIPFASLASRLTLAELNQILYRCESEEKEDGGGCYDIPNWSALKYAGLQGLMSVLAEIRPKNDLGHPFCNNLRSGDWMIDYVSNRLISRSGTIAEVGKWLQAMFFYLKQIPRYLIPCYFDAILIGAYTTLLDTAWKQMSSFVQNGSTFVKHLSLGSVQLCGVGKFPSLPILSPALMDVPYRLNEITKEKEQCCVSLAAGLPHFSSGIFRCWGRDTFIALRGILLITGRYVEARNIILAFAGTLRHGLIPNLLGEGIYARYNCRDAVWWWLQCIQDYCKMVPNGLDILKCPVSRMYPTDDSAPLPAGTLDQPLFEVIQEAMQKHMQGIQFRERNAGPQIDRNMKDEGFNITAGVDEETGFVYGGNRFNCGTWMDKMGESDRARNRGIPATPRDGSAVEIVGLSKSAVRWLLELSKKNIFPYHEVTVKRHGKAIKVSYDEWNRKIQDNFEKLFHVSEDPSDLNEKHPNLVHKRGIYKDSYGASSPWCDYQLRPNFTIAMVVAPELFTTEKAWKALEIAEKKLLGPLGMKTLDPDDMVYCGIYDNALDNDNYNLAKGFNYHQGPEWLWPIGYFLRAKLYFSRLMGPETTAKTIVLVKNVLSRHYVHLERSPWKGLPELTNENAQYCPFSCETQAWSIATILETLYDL
UniProt Q6ULP2: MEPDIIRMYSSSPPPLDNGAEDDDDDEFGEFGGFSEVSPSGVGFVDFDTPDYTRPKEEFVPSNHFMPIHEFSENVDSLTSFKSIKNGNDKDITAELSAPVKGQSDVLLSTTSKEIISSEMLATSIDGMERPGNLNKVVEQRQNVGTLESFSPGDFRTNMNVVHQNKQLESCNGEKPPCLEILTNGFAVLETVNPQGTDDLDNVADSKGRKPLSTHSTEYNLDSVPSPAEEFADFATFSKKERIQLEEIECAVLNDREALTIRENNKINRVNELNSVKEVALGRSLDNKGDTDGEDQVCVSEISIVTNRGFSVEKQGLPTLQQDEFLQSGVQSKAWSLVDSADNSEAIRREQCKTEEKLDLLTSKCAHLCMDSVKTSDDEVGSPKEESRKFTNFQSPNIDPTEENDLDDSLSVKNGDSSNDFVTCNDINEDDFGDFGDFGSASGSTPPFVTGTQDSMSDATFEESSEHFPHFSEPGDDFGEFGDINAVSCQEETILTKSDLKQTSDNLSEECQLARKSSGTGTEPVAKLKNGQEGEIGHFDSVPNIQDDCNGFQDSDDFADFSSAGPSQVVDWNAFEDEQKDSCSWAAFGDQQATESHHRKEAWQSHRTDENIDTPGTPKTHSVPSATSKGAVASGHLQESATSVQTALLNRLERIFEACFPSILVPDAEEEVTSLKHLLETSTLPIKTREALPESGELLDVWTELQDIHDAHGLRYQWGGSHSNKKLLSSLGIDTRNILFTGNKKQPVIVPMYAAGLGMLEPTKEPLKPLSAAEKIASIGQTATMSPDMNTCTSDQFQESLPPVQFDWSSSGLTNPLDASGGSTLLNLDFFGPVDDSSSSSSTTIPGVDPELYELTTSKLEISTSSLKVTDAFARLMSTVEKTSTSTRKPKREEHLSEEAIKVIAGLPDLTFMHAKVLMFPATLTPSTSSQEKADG
UniProt O00154: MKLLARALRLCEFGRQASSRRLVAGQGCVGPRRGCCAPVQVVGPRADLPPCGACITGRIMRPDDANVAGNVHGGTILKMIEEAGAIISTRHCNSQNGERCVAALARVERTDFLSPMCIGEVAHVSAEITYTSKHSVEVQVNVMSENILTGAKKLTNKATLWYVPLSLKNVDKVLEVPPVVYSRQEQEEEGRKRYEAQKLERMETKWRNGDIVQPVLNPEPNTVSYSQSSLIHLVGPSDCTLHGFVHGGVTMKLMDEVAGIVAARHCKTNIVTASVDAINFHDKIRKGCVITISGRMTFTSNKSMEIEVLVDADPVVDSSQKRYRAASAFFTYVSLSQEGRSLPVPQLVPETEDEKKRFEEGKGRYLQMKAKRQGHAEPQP
UniProt Q9Y3D8, whole entry, looked up: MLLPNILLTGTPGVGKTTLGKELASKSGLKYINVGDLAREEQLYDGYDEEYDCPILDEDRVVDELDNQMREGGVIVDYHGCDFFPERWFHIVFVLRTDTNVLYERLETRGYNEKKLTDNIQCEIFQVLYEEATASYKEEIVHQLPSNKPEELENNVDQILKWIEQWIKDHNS
UniProt P55265: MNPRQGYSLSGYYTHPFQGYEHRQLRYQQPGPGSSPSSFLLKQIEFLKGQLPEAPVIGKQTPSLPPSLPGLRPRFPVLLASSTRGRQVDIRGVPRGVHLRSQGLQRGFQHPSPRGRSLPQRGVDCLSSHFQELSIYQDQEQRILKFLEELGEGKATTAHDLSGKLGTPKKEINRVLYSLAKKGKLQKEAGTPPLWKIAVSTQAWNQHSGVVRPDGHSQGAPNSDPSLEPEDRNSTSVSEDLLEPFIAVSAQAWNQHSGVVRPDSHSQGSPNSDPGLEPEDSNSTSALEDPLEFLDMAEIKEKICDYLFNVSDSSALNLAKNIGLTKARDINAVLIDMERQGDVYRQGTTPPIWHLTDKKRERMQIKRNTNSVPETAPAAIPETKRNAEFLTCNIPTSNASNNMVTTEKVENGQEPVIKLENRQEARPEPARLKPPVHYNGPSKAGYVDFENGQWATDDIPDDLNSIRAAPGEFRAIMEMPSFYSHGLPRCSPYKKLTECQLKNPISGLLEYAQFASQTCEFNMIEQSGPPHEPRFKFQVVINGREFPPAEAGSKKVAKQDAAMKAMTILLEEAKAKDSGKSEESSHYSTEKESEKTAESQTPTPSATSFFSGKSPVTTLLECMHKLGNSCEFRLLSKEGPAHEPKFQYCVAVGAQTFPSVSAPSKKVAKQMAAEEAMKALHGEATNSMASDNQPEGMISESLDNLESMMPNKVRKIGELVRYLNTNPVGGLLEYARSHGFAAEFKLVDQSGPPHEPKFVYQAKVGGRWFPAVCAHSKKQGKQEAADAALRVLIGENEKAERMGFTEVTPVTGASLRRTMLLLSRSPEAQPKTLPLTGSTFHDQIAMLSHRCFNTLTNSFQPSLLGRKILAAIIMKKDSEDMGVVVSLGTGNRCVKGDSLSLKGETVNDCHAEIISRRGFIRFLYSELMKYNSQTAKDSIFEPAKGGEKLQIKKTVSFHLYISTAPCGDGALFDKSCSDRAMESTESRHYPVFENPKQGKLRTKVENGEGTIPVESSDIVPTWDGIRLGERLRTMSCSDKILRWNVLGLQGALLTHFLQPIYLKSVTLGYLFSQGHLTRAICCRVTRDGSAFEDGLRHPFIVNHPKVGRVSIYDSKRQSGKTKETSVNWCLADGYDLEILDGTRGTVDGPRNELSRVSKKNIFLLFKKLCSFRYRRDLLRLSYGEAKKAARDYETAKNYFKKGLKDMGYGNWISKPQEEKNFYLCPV
UniProt Q7Z591: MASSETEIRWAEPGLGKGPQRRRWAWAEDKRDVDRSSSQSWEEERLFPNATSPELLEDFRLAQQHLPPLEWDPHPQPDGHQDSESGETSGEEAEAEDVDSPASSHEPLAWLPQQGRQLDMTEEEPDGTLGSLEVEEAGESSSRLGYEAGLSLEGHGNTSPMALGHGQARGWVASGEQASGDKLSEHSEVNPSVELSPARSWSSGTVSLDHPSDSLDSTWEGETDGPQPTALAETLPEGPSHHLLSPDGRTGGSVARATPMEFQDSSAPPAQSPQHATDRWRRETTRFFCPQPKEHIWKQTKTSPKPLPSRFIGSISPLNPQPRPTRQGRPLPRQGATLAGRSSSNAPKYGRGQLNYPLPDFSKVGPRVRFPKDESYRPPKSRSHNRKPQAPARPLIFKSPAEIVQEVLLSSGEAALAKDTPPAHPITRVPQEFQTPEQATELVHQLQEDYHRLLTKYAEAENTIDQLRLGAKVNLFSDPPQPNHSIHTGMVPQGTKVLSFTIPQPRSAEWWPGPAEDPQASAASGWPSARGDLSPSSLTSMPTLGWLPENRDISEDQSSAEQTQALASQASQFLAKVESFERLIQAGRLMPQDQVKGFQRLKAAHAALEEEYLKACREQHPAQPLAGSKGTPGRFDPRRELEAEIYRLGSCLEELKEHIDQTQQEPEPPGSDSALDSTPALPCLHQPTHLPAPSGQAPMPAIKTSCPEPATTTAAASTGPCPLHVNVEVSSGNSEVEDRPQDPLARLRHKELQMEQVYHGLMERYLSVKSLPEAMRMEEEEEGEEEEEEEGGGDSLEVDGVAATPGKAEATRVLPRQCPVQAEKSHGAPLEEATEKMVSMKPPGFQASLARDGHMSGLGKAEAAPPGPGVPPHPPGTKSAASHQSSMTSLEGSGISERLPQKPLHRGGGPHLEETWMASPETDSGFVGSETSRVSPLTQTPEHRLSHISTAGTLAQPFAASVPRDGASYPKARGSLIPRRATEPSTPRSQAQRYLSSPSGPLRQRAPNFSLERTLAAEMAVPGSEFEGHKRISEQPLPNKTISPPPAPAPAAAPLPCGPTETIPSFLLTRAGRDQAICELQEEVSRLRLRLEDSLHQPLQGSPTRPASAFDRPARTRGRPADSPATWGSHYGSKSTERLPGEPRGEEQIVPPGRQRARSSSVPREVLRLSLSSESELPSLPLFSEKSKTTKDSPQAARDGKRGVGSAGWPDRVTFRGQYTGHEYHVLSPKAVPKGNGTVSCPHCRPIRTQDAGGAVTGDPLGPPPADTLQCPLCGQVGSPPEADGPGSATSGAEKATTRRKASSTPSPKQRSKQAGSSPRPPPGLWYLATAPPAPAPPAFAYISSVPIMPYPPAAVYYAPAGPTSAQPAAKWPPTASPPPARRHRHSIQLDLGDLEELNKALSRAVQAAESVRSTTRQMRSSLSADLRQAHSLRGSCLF

Assays:
Assay in all cases: log2 fold change, soluble protein after heating vs DMSO (PISA); higher = thermal stabilisation; K562 lysate, 10 uM; active = over 0.2 and 3.5 SD of the protein, either way, in both replicates (recomputed)
alvocidib = compound: CN1CC[C@H](c2c(O)cc(O)c3c(=O)cc(-c4ccccc4Cl)oc23)[C@H](O)C1 [alvocidib]
How it was run: (§1)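 The values are log-two fold changes in thermal stability compared with solvent controls and come from duplicates. They were obtained by TMTpro 16plex LC-MS/MS, with channel sums equalised, on the supernatant after 21,000xg for 90 min. That supernatant came from crude K562 extract at 1 mg/mL protein treated with 10 μM compound for 30 min, heated for 3 min across 48°C-58°C, pooled and brought to 0.5% NP-40 at 4°C.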

Tubastatin A = compound: CN1CCc2c(c3ccccc3n2Cc2ccc(C(=O)NO)cc2)C1 [Tubastatin A]
How it was run: as §1

[1] = compound: CNC(=O)C1=CC=CC=C1NC2=NC(=NC=C2Cl)NC3=C(C=C(C=C3)N4CCOCC4)OC
How it was run: as §1

defactinib = compound: CNC(=O)c1ccc(Nc2ncc(C(F)(F)F)c(NCc3nccnc3N(C)S(C)(=O)=O)n2)cc1 [defactinib]
How it was run: as §1

[2] = compound: CNc1nc(-c2ccc3c(N)n[nH]c3c2)cc(N2C[C@@H](C(=O)NC3CCCCC3)CC[C@H]2C)n1
How it was run: as §1

encorafenib = compound: COC(=O)N[C@@H](C)CNc1nccc(-c2cn(C(C)C)nc2-c2cc(Cl)cc(NS(C)(=O)=O)c2F)n1 [encorafenib]
How it was run: as §1

[3] = compound: COC(=O)[C@H](CCSC)NC(=O)C1=C(C=C(C=C1)NC[C@H](CS)N)C2=CC=CC=C2
How it was run: as §1

alisertib = compound: COc1cc(Nc2ncc3c(n2)-c2ccc(Cl)cc2C(c2c(F)cccc2OC)=NC3)ccc1C(=O)O [alisertib]
How it was run: as §1

[4] = compound: COc1cc2nc(-c3cc(F)ccc3O)nc(N[C@@H]3CNC[C@H]3C(C)(C)O)c2cc1OC
How it was run: as §1

gefitinib = compound: COc1cc2ncnc(Nc3ccc(F)c(Cl)c3)c2cc1OCCCN1CCOCC1 [gefitinib]
How it was run: as §1

Measured: log2 fold change

ACTL6A (UniProt O96019)
inactive: alvocidib -0.009 | Tubastatin A 0.014 | [1] -0.039 | defactinib 0.012 | [2] 0.018 | encorafenib -0.012 | [3] 0.015 | alisertib -0.032 | [4] -0.005 | gefitinib -0.005

AKAP12 (UniProt Q02952)
inactive: alvocidib -0.134 | Tubastatin A 0.104 | [1] 0.089 | defactinib -0.024 | [2] -0.059 | encorafenib -0.085 | [3] -0.081 | alisertib 0.053 | [4] 0.043 | gefitinib 0.066

AFF4 (UniProt Q9UHB7)
inactive: alvocidib -0.235 | Tubastatin A -0.086 | [1] -0.046 | defactinib 0.077 | [2] 0.018 | encorafenib 0.011 | [3] -0.027 | alisertib -0.022 | [4] 0.015 | gefitinib 0.013

AFG3L2 (UniProt Q9Y4W6)
inactive: alvocidib 0.049 | Tubastatin A 0.089 | [1] -0.029 | defactinib 0.023 | [2] -0.085 | encorafenib -0.007 | [3] 0.059 | alisertib 0.057 | [4] -0.025 | gefitinib -0.008

ACYP1 (UniProt P07311)
inactive: alvocidib 0.084 | Tubastatin A 0.008 | [1] -0.002 | defactinib 0.014 | [2] -0.018 | encorafenib -0.018 | [3] -0.016 | alisertib 0.012 | [4] -0.008 | gefitinib 0.026

ADSS2 (UniProt P30520)
inactive: alvocidib -0.036 | Tubastatin A 0.038 | [1] 0.014 | defactinib -0.02 | [2] 0.014 | encorafenib 0.011 | [3] -0.028 | alisertib -0.008 | [4] 0.005 | gefitinib 0.007

Reprinted from the results shown (five entries):
AKAP12 (UniProt Q02952)
inactive: alvocidib -0.134 | Tubastatin A 0.104 | [1] 0.089 | defactinib -0.024 | [2] -0.059 | encorafenib -0.085 | [3] -0.081 | alisertib 0.053 | [4] 0.043 | gefitinib 0.066

AFF4 (UniProt Q9UHB7)
inactive: alvocidib -0.235 | Tubastatin A -0.086 | [1] -0.046 | defactinib 0.077 | [2] 0.018 | encorafenib 0.011 | [3] -0.027 | alisertib -0.022 | [4] 0.015 | gefitinib 0.013

AFG3L2 (UniProt Q9Y4W6)
inactive: alvocidib 0.049 | Tubastatin A 0.089 | [1] -0.029 | defactinib 0.023 | [2] -0.085 | encorafenib -0.007 | [3] 0.059 | alisertib 0.057 | [4] -0.025 | gefitinib -0.008

ACYP1 (UniProt P07311)
inactive: alvocidib 0.084 | Tubastatin A 0.008 | [1] -0.002 | defactinib 0.014 | [2] -0.018 | encorafenib -0.018 | [3] -0.016 | alisertib 0.012 | [4] -0.008 | gefitinib 0.026

ADSS2 (UniProt P30520)
inactive: alvocidib -0.036 | Tubastatin A 0.038 | [1] 0.014 | defactinib -0.02 | [2] 0.014 | encorafenib 0.011 | [3] -0.028 | alisertib -0.008 | [4] 0.005 | gefitinib 0.007

Next results:

AK1 (UniProt P00568)
inactive: alvocidib 0.154 | Tubastatin A 0.009 | [1] -0.034 | defactinib -0.035 | [2] -0.007 | encorafenib -0.036 | [3] -0.07 | alisertib 0 | [4] 0.013 | gefitinib -0.019

AGO4 (UniProt Q9HCK5)
active: [2] -0.214
inactive: alvocidib -0.013 | Tubastatin A -0.003 | [1] 0.003 | defactinib -0.027 | encorafenib 0.025 | [3] -0.092 | alisertib -0.008 | [4] 0.037 | gefitinib -0.015

AGPAT1 (UniProt Q99943)
inactive: alvocidib -0.002 | Tubastatin A -0.015 | [1] 0.052 | defactinib -0.007 | [2] -0.033 | encorafenib 0.075 | [3] -0.016 | alisertib -0.015 | [4] -0.232 | gefitinib 0.028

ADK (UniProt P55263)
inactive: alvocidib 0.246 | Tubastatin A -0.025 | [1] 0.178 | defactinib 0.026 | [2] 0 | encorafenib -0.048 | [3] 0.068 | alisertib -0.063 | [4] -0.015 | gefitinib 0.158

ADD2 isoform 9 (UniProt P35612)
inactive: alvocidib -0.005 | Tubastatin A 0.308 | [1] 0.099 | defactinib 0.098 | [2] 0.172 | encorafenib 0.175 | [3] 0.047 | alisertib -0.247 | [4] -0.226 | gefitinib -0.04

ACTL8 (UniProt Q9H568)
inactive: alvocidib 0.039 | Tubastatin A 0.006 | [1] -0.005 | defactinib -0.122 | [2] -0.061 | encorafenib 0.021 | [3] 0.024 | alisertib -0.042 | [4] 0.003 | gefitinib -0.098

AGL (UniProt P35573)
inactive: alvocidib 0.046 | Tubastatin A -0.099 | [1] 0.014 | defactinib 0.024 | [2] -0.002 | encorafenib 0.008 | [3] 0.178 | alisertib -0.004 | [4] -0.012 | gefitinib -0.007

AGTPBP1 (UniProt Q9UPW5)
inactive: alvocidib 0.034 | Tubastatin A 0.046 | [1] 0.024 | defactinib -0.058 | [2] -0.001 | encorafenib -0.014 | [3] -0.031 | alisertib 0.097 | [4] -0.039 | gefitinib -0.004

ACOT9 isoform 4 (UniProt Q9Y305)
inactive: alvocidib 0.027 | Tubastatin A -0.125 | [1] -0.029 | defactinib -0.001 | [2] -0.008 | encorafenib 0.003 | [3] 0.053 | alisertib 0.021 | [4] -0.014 | gefitinib -0.008

AFTPH isoform 9 (UniProt Q6ULP2)
inactive: alvocidib 0.014 | Tubastatin A -0.011 | [1] -0.001 | defactinib -0.015 | [2] -0.014 | encorafenib 0.072 | [3] -0.026 | alisertib -0.029 | [4] -0.024 | gefitinib 0.011

ACOT7 isoform 7 (UniProt O00154)
inactive: alvocidib -0.015 | Tubastatin A 0.043 | [1] 0.022 | defactinib -0.002 | [2] 0.026 | encorafenib 0.022 | [3] -0.02 | alisertib -0.013 | [4] 0.012 | gefitinib -0.027

AKIRIN2 (UniProt Q53H80)
inactive: alvocidib 0.036 | Tubastatin A -0.199 | [1] -0.191 | defactinib -0.068 | [2] 0.092 | encorafenib 0.003 | [3] -0.16 | alisertib 0.016 | [4] -0.023 | gefitinib 0.049

AKR1B1 (UniProt P15121)
inactive: alvocidib 0.033 | Tubastatin A 0.023 | [1] -0.003 | defactinib -0.01 | [2] -0.072 | encorafenib 0.019 | [3] 0.009 | alisertib 0.015 | [4] -0.008 | gefitinib -0.016

ADAMTS5 (UniProt Q9UNA0)
inactive: alvocidib -0.33 | Tubastatin A 0.149 | [1] 0.105 | defactinib -0.052 | [2] 0.278 | encorafenib -0.134 | [3] -0.012 | alisertib 0.073 | [4] 0.109 | gefitinib -0.093

AK6 (UniProt Q9Y3D8)
inactive: alvocidib 0.025 | Tubastatin A -0.113 | [1] 0 | defactinib -0.038 | [2] -0.108 | encorafenib 0.03 | [3] -0.012 | alisertib 0.019 | [4] 0.026 | gefitinib 0.01

ADGRE2 (UniProt Q9UHX3)
inactive: alvocidib 0.025 | Tubastatin A -0.011 | [1] -0.011 | defactinib 0.001 | [2] 0.019 | encorafenib -0.006 | [3] 0.148 | alisertib -0.042 | [4] 0.071 | gefitinib 0.084

AGPAT5 (UniProt Q9NUQ2)
inactive: alvocidib 0.081 | Tubastatin A 0.016 | [1] -0.065 | defactinib 0 | [2] -0.015 | encorafenib -0.004 | [3] 0.006 | alisertib -0.024 | [4] -0.074 | gefitinib -0.025

ADAR isoform 4 (UniProt P55265)
inactive: alvocidib -0.004 | Tubastatin A -0.167 | [1] 0.012 | defactinib 0.054 | [2] -0.001 | encorafenib 0.052 | [3] -0.041 | alisertib 0.045 | [4] 0.013 | gefitinib 0.02

AHCYL1 (UniProt O43865)
inactive: alvocidib 0.025 | Tubastatin A -0.096 | [1] 0.051 | defactinib 0.06 | [2] 0.037 | encorafenib 0.01 | [3] 0.009 | alisertib -0.041 | [4] -0.003 | gefitinib -0.012

AKR7A2 (UniProt O43488)
inactive: alvocidib 0.014 | Tubastatin A 0.002 | [1] 0.041 | defactinib -0.01 | [2] 0.022 | encorafenib -0.041 | [3] 0.027 | alisertib -0.014 | [4] -0.002 | gefitinib -0.05

AKNA (UniProt Q7Z591)
inactive: alvocidib -0.099 | Tubastatin A -0.146 | [1] 0.219 | defactinib 0.098 | [2] 0.016 | encorafenib 0.127 | [3] 0.187 | alisertib 0.011 | [4] 0.057 | gefitinib 0.104
